PubChem BioAssay AID652259 | Drosophila RNAi Screening Center, 2013
Purpose: 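Identify new Wingless signalling regulators in fly cells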 (primary screen). Cell system: Drosophila clone 8 imaginal disc epithelial cells. Reagents: long dsRNA against Drosophila genes. Challenge: pathway stimulated by co-transfected Wingless expression plasmid. Measured: 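Firefly luciferase from a tcf-site Wingless reporter, measured alongside co-transfected Renilla luciferase that tracks transfection; pathway stimulated by a Wingless plasmid; the firefly-to-Renilla ratio is not deposited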. Direction: firefly reporter light: higher = more Wg reporter light, before normalisation; Renilla control light: higher = more transfected or surviving cells. Hit rule: 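Strong candidates differ from their plate mean by at least two out of four per-plate statistical tests; weak candidates meet just one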. Calls: active = candidate regulator (raises or lowers reporter); inactive = not a candidate.
The deposit covers about 22,000 reagents; shown is an unselected part of those that have a named target and a result. In the full data, 233 (1.1%) got an active call. 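Light values are raw, unnormalised plate reads; the ratio scores behind the reporter calls were not deposited.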 A plus sign joins genes that one reagent is predicted to hit. Not given: the amount of reagent, the time to read-out, the dose of the treatment.

Target gene	dsRNA	reporter change call, replicate 1	firefly reporter light, replicate 1	firefly reporter light, replicate 2	Renilla control light, replicate 1	Renilla control light, replicate 2	outcome
Hsc70-5	DRSC07442		17127		4064		inactive
b6	DRSC18740		22320		12792		inactive
a5	DRSC00798		2919	7328	887	2208	inactive
CG9106	DRSC20154		2939	9238	1175	2781	inactive
CG5033	DRSC07410		8485		3330		inactive
CG31176	DRSC15038		30688		4695		inactive
CG31176	DRSC16021		33104		5936		inactive
mbm	DRSC00319		15062		4756		inactive
Ravus	DRSC15126		15931		2000		inactive
CG12990	DRSC19510		14628		7879		inactive
unc-119	DRSC18846		15632		6652		inactive
Hsp70Aa + Hsp70Ab	DRSC21246		8899		5067		inactive
caps	DRSC11333		5585		2487		inactive
caps	DRSC22224		4.72e5	5.13e5	2.14e5	1.99e5	inactive
Nplp1	DRSC04370		11040		3092		inactive
CG30284	DRSC22150		3.67e5	4.52e5	1.97e5	2.32e5	inactive
JYalpha (retired record) + JYalpha	DRSC21700		8.13e5	7.45e5	4.99e5	3.45e5	inactive
Cdk4	DRSC07358		9066		3504		inactive
barc	DRSC11792		7520		1457		inactive
mwh	DRSC07949		1888		872		inactive
mwh	DRSC08382		3987		2210		inactive
CG43759	DRSC19464		2311	8374	1408	3028	inactive
CG43759	DRSC19543		22416		8727		inactive
Ref2	DRSC02563		1467	3990	820	2041	inactive
Hs3st-B	DRSC20067		24106		10353		inactive
CG3655	DRSC17676		4509		1555		inactive
CG3655	DRSC18181		18420		13628		inactive
CG3655	DRSC18477		14025		10339		inactive
CG3655	DRSC22688		4.91e5	5.55e5	1.43e5	1.18e5	inactive
LanB2	DRSC11208		3362		1442		inactive
CG12213	DRSC14478		8016		3920		inactive
CG12213	DRSC22109		7.40e5	7.56e5	3.11e5	2.95e5	inactive
mael	DRSC11894		7249		2614		inactive
CG14958	DRSC08417		6688		2253		inactive
SLC22A	DRSC11826		12600		3152		inactive
SLC22A	DRSC11827		15733		4036		inactive
CG10139	DRSC05972		10245		1308		inactive
Sf3b1	DRSC00535		3255	8070	729	2023	inactive
CG4440	DRSC02747		2713	6161	1098	2858	inactive
CG13085	DRSC02189		3116	6562	859	2291	inactive
CG33978	DRSC17106		3715		1141		inactive
HUWE1	DRSC20089		24384		10806		inactive
CG15107	DRSC06534		8704		2553		inactive
GILT3	DRSC14672		12400		12651		inactive
tctn + B9d2	DRSC03160		2403	6586	888	2601	inactive
upSET	DRSC11051		6102		1141		inactive
CG3857	DRSC18542		2680	6458	1072	2712	inactive
Gr58a	DRSC03910		15845		7433		inactive
CG4752	DRSC04486		3291	9810	1408	4696	inactive
CG13658	DRSC14659		24395		19031		inactive
CG2698	DRSC15447		18499		4196		inactive
Chpf	DRSC19491		20210		9829		inactive
Chpf	DRSC19893		1991	7788	949	2259	inactive
par-6	DRSC20359		2316	10289	908	2554	inactive
CG15459	DRSC20530		19045		10165		inactive
CG15459	DRSC21383		3.95e5	4.35e5	1.54e5	1.38e5	inactive
Trs31	DRSC05975		15131		4725		inactive
tomboy40	DRSC04918		17876		4552		inactive
CG9855	DRSC12344		13453	7.29e5	4909	3.42e5	inactive
Spn55B	DRSC07694		8833		2954		inactive
Spn55B	DRSC21862		3.74e5	3.95e5	1.35e5	1.37e5	inactive
CG15036	DRSC17968		44482		6476		inactive
Sem1	DRSC02282		3580	5778	608	1280	inactive
CG3698	DRSC11749		7794		3523		inactive
CG7882	DRSC04899		3530	4652	818	2033	inactive
CG11050	DRSC02125		14417		3157		inactive
Srpk79D	DRSC11668		9083		4081		inactive
Srpk79D	DRSC11856		12518		4330		inactive
APP-BP1	DRSC10920		8096		3977		inactive
CG34377	DRSC13559		3193		1585		inactive
CG34377	DRSC14708		36843		5928		inactive
CG34377	DRSC14709		33405		5734		inactive
CG34377	DRSC14710		33781		4616		inactive
CG34377	DRSC14711		32517		4762		inactive
CG9304	DRSC04538		2560	6522	578	2373	inactive
r	DRSC19813		20288		8616		inactive
r	DRSC19814		18752		7604		inactive
XRCC1	DRSC18729		2311	7019	888	2304	inactive
Sesn	DRSC04101		11890		4829		inactive
Sesn	DRSC04102		4970	9821	1383	4006	inactive
Sesn	DRSC04103		3632	8185	859	3456	inactive
Spn28B	DRSC02982		3064	7720	265	3570	inactive
Prx2	DRSC20256		14392		9355		inactive
Mad	DRSC00759		2506	9286	992	2875	inactive
CG31952	DRSC00428		4229	8864	1424	4161	inactive
CG31952	DRSC21997		5.28e5	5.52e5	1.57e5	1.73e5	inactive
Acsx3	DRSC14309		1704	4545	972	1484	inactive
Tfb1	DRSC07082	Wg reporter activity raised	32242		2182		active
CG14515	DRSC14867		5192		2155		inactive
CG6959	DRSC16151		14364		3620		inactive
vlc	DRSC04922		2448	7202	836	2505	inactive
bic	DRSC07584		15589		3810		inactive
CG9117	DRSC03141		2397	6817	864	2184	inactive

Just “Renilla control light, replicate 1”, for 5 of the entries above:
CG31952 [DRSC00428]	1424
CG31952 [DRSC21997]	1.57e5
Acsx3 [DRSC14309]	972
Tfb1 [DRSC07082]	2182
CG14515 [DRSC14867]	2155
